This is one part of the list.
Compound: COc1ccc(Cn2ccc3cc(C)c(C(=O)NO)cc32)cc1
Assay: dose-dependent thermal stabilisation call (2D-TPP, DLPTP, 10% FDR) (binary (1 = stabilised)); higher = stabilised by the compound
Conditions: system: HL-60 intact cells; concentration range 0.04-10 µM
Method: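 2D thermal proteome profiling in intact HL-60 cells treated with BRD-3811 (0, 0.04, 0.29, 2, 10 uM) for 90 min at 37 C, then heated 3 min at one of 12 temperatures (42-63.9 C). Soluble protein was quantified by TMT10 MS. The value is the DLPTP call of the paper: dose-dependent thermal stabilisation over all temperatures at 10% FDR (F-test of a dose-response against a flat model); one experiment, one call per tested protein.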

Sequences of proteins named here, by UniProt entry; tags and fusion partners are left off. A change or cut given only in a name is not applied to a line headed by its entry.
UniProt Q9UNZ2: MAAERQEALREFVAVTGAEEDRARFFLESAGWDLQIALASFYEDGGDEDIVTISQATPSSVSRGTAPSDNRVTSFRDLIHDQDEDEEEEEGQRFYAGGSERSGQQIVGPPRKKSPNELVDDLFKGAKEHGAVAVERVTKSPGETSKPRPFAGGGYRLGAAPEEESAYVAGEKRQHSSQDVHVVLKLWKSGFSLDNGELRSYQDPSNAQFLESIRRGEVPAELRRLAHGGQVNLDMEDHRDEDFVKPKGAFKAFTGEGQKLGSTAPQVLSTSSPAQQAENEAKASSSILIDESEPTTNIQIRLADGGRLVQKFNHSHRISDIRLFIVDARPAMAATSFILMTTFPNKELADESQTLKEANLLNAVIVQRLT
UniProt O95989: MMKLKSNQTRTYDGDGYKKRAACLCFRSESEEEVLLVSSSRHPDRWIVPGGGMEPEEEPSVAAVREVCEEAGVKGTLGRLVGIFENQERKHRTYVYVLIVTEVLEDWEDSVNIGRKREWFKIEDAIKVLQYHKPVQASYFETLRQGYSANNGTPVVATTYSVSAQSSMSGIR
UniProt Q15843, whole entry: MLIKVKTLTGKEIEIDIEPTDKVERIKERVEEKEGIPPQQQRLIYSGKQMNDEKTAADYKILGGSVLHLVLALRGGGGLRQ
UniProt Q8N8Q9: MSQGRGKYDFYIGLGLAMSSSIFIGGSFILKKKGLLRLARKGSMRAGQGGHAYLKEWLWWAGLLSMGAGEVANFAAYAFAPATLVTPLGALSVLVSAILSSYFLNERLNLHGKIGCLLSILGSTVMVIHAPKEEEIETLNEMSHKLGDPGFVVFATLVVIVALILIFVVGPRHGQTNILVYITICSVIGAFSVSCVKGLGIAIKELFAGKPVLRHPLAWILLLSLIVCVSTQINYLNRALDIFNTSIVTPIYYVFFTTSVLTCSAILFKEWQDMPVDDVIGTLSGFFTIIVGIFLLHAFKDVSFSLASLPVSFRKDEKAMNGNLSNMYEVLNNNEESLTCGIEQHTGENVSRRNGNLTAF
UniProt P04150: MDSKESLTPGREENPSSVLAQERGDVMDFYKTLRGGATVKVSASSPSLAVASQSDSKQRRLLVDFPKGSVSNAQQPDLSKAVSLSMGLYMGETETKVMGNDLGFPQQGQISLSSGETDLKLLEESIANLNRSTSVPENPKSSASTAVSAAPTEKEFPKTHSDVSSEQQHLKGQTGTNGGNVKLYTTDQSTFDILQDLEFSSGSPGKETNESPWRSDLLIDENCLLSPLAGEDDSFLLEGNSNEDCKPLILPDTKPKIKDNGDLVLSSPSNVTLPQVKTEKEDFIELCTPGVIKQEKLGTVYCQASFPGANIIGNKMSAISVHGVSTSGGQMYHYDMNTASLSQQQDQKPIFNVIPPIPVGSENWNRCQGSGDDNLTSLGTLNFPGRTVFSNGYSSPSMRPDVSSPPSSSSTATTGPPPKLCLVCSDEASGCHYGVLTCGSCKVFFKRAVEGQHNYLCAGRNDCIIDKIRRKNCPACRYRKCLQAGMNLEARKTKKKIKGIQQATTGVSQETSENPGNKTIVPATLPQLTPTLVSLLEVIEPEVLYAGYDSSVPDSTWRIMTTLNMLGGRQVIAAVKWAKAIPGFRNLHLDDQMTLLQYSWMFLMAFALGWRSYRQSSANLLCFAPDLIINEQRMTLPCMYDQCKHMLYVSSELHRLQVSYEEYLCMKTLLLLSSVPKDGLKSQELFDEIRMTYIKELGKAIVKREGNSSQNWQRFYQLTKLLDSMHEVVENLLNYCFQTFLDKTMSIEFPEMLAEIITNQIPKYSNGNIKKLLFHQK
UniProt Q8WUM0: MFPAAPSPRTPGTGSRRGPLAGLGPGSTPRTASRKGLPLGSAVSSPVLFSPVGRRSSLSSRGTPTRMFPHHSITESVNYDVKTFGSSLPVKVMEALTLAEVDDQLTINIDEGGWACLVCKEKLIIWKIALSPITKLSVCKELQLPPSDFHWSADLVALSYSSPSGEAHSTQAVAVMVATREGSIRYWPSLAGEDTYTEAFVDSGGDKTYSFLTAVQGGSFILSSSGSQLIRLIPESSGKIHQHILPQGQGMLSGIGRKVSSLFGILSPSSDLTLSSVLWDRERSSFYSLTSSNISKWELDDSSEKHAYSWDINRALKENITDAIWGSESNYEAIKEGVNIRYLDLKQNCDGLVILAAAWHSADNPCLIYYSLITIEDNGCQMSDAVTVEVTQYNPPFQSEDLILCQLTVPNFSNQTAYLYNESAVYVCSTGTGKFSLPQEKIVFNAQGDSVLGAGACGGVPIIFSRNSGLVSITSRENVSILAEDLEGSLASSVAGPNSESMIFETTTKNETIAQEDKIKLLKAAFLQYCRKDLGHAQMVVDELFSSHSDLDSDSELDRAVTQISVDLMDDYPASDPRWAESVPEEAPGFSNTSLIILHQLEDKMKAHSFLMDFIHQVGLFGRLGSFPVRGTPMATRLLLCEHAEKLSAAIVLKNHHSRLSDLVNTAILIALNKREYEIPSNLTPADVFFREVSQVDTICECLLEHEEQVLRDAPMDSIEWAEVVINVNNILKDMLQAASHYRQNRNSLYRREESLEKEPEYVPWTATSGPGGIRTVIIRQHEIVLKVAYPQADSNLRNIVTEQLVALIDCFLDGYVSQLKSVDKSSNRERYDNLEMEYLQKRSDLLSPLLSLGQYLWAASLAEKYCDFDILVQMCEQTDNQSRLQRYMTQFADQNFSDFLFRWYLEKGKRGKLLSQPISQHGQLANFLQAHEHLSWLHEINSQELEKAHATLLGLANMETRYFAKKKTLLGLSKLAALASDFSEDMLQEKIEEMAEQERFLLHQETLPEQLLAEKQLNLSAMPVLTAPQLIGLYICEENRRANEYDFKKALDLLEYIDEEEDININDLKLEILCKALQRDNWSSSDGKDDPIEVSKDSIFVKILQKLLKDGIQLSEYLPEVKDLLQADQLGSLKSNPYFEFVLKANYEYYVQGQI
UniProt O75694: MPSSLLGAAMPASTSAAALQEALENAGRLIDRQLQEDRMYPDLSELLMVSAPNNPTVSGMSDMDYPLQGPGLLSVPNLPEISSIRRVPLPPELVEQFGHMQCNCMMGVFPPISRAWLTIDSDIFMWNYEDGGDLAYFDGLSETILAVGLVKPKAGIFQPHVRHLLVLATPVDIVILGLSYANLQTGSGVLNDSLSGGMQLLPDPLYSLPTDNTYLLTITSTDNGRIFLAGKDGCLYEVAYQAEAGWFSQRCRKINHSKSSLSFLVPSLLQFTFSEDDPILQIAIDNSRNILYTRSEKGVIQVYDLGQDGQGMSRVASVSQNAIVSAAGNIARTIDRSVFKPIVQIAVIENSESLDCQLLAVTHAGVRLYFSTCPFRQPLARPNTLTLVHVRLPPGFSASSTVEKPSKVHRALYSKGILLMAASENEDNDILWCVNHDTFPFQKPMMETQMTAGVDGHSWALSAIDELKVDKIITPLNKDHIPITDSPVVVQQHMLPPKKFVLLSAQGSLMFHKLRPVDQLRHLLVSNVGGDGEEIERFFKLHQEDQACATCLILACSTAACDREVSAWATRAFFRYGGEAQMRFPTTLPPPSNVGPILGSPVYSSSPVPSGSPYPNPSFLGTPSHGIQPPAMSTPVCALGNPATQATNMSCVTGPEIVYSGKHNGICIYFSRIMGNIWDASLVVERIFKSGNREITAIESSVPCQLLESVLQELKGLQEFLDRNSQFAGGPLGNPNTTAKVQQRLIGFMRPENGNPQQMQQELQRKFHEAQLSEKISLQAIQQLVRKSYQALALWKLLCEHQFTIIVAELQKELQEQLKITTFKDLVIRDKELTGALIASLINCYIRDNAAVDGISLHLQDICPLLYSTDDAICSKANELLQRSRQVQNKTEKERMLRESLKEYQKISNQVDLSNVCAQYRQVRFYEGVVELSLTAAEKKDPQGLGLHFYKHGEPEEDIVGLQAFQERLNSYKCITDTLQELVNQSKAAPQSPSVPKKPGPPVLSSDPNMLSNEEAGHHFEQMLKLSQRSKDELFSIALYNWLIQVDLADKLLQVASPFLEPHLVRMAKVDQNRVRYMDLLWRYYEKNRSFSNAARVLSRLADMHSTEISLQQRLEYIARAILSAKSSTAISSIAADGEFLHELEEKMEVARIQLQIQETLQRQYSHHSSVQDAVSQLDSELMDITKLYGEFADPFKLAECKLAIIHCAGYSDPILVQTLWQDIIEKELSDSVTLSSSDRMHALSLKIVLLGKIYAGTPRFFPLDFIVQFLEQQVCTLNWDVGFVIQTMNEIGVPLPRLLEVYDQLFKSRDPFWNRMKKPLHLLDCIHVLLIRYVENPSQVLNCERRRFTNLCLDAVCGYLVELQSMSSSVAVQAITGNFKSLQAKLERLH
UniProt Q9UBU9: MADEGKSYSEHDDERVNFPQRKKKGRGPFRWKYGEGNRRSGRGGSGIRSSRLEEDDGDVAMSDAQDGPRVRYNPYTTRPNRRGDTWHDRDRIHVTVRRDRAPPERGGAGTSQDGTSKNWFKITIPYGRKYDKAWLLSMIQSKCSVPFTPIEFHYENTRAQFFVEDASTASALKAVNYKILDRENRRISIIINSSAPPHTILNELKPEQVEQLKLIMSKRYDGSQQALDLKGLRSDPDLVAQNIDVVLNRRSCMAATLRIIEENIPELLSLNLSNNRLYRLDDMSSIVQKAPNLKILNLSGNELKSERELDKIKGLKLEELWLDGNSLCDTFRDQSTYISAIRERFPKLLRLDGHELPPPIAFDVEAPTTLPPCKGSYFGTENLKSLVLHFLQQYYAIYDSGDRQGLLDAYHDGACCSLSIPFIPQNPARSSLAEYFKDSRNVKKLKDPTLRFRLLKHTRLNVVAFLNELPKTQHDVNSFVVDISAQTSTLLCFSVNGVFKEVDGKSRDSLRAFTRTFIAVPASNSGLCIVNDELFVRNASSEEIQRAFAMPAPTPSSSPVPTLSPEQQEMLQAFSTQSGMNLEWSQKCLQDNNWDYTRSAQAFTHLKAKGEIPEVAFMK
UniProt Q5SYE7: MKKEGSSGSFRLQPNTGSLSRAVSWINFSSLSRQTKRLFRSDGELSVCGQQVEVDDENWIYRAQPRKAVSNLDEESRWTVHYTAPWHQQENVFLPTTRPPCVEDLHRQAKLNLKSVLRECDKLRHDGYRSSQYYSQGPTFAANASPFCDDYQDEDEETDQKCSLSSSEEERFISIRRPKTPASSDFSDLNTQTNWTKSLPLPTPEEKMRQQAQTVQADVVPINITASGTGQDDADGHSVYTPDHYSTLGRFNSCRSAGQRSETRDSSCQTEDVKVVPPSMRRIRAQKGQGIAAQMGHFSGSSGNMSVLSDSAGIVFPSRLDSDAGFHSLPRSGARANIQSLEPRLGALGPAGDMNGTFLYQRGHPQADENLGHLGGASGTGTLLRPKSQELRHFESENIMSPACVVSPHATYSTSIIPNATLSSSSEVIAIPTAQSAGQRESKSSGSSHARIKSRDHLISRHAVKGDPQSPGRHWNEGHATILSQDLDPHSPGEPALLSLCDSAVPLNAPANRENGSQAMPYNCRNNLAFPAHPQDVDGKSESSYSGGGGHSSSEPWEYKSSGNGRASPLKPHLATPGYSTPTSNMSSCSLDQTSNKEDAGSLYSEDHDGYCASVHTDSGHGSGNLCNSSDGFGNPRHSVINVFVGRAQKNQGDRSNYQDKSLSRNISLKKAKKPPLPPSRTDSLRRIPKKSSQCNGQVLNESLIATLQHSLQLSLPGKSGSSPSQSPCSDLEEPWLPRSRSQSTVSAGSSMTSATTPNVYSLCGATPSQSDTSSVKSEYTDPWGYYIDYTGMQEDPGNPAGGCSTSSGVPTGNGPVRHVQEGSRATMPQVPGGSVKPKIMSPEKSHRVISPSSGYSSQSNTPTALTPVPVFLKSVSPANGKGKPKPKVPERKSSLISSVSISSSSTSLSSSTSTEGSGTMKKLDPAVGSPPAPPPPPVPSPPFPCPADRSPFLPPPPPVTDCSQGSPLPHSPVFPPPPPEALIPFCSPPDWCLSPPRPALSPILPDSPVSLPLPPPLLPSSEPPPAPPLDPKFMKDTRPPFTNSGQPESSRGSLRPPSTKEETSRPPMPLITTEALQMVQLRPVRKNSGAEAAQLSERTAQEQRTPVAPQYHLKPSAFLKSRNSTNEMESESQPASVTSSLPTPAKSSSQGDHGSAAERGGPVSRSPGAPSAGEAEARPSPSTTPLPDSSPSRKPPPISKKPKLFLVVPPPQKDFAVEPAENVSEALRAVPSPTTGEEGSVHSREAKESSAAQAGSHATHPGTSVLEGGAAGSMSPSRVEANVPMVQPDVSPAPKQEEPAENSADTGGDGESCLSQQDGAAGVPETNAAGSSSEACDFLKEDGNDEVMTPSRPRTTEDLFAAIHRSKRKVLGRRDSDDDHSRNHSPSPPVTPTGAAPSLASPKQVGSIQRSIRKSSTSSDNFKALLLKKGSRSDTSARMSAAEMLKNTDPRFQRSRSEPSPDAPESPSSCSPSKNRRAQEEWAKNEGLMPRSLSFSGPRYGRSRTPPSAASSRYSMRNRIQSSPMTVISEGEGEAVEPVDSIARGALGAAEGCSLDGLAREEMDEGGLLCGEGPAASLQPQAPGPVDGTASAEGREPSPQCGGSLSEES

Row | Target | dose-dependent thermal stabilisation call
1 | NCSTN (UniProt Q92542) | inactive: 0
2 | NFU1 (UniProt Q9UMS0) | inactive: 0
3 | NSFL1C (UniProt Q9UNZ2) | inactive: 0
4 | NUDT3 (UniProt O95989) | inactive: 0
5 | NSUN6 (UniProt Q8TEA1) | inactive: 0
6 | NEDD8 (UniProt Q15843) | inactive: 0
7 | NOC4L (UniProt Q9BVI4) | inactive: 0
8 | NAT14 (UniProt Q8WUY8) | inactive: 0
9 | NKAP (UniProt Q8N5F7) | inactive: 0
10 | NIPA2 (UniProt Q8N8Q9) | inactive: 0
11 | ND3 (UniProt P03897) | inactive: 0
12 | NUP98 (UniProt P52948) | inactive: 0
13 | NFIA (UniProt Q12857) | inactive: 0
14 | NHLRC3 (UniProt Q5JS37) | inactive: 0
15 | NKIRAS2 (UniProt Q9NYR9) | inactive: 0
16 | NMI (UniProt Q13287) | inactive: 0
17 | NDUFA8 (UniProt P51970) | inactive: 0
18 | NR3C1 (UniProt P04150) | inactive: 0

Row | Target | dose-dependent thermal stabilisation call
19 | NDUFB7 (UniProt P17568) | inactive: 0
20 | NUP133 (UniProt Q8WUM0) | inactive: 0
21 | NDUFS2 (UniProt O75306) | inactive: 0
22 | NUP155 (UniProt O75694) | inactive: 0
23 | NR2F2 (UniProt P24468) | inactive: 0
24 | NIPSNAP1 (UniProt Q9BPW8) | inactive: 0
25 | NMD3 (UniProt Q96D46) | inactive: 0
26 | NLN (UniProt Q9BYT8) | active: 1
27 | NARS2 (UniProt Q96I59) | inactive: 0
28 | NXF1 (UniProt Q9UBU9) | inactive: 0
29 | NFIC (UniProt P08651) | inactive: 0
30 | NARG1 (UniProt Q9BXJ9) | inactive: 0
31 | NHSL1 (UniProt Q5SYE7) | inactive: 0
32 | NRBP1 (UniProt Q9UHY1) | inactive: 0
33 | NEK3 (UniProt P51956) | inactive: 0
34 | NRP1 (UniProt O14786) | inactive: 0
35 | NFKBIB (UniProt Q15653) | inactive: 0
36 | NUCB1 (UniProt Q02818) | inactive: 0

Copied from the list.
dose-dependent thermal stabilisation call, NEK3 (UniProt P51956) is entered as inactive: 0
dose-dependent thermal stabilisation call, NARS2 (UniProt Q96I59) is entered as inactive: 0

— the supplement of paper PMC7666118
